Measured values: the supplement of paper PMC4604168 (melanoma cell lines)
The list shows a part of the results. Repeats are few or missing, and single values can be far off.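 Imaging used 1,536-well plates; nuclei positive for cleaved PARP by antibody were divided by total DNA-stained nuclei to yield the apoptosis fraction. Doses for screening kept most cells viable, and cell lines differ markedly in resting and induced cleaved-PARP levels.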

Each compound was assayed on WM3526 (assay: cleaved PARP positive nuclei fraction relative to DMSO control; melanoma cells; higher = more apoptosis). Conditions: library dose: low library concentration; 72 h.

| SMILES | cleaved PARP positive nuclei fraction |
| --- | --- |
| CC(=O)c1c(C)c2cnc(Nc3ccc(N4CCNCC4)cn3)nc2n(C2CCCC2)c1=O [palbociclib] + Nc1cccc2c1CN(C1CCC(=O)NC1=O)C2=O [lenalidomide] (first compound 0.04 µM, partner dose 1 µM) | 63.8% |
| C=CCNC1=C2C[C@@H](C)C[C@H](OC)[C@H](O)[C@@H](C)/C=C(\C)[C@H](OC(N)=O)[C@@H](OC)/C=C\C=C(/C)C(=O)NC(=CC1=O)C2=O [Tanespimycin] + COC(=O)c1sccc1S(=O)(=O)Nc1ccc(Nc2ccccc2)cc1OC [GSK0660] (first compound 0.002 µM, partner dose 1 µM) | 129% |
| Clc1ccc(Nc2nnc(Cc3ccncc3)c3ccccc23)cc1 [vatalanib] + C[C@]1(c2nc3c(C(N)=O)cccc3[nH]2)CCCN1 [Veliparib] (first compound 2 µM, partner dose 1.4 µM) | 89.2% |
| COCC[n+]1c2c(n(Cc3cnccn3)c1C)C(=O)c1ccccc1C2=O + NC(=O)Nc1cc(-c2cccc(F)c2)sc1C(=O)N[C@H]1CCCNC1 [AZD7762] (first compound 0.0004 µM, partner dose 0.02 µM) | 69.3% |
| Cn1c(Nc2ccc(C(F)(F)F)cc2)nc2cc(Oc3ccnc(-c4ncc(C(F)(F)F)[nH]4)c3)ccc21 + CCN(CC)CCCCNc1ncc2cc(-c3cc(OC)cc(OC)c3)c(NC(=O)NC(C)(C)C)nc2n1 [PD173074] (first compound 0.08 µM, partner dose 0.1 µM) | 110% |
| CC(C)(C)c1cnc(CSc2cnc(NC(=O)C3CCNCC3)s2)o1 + CCc1ccc(CCOc2ccc(CC3SC(=O)NC3=O)cc2)nc1 [pioglitazone] (first compound 0.01 µM, partner dose 2 µM) | 74.2% |
| C[C@]1(c2nc3c(C(N)=O)cccc3[nH]2)CCCN1 [Veliparib] + COc1ccc(COc2ccc(Cc3cnc(N)nc3N)cc2OC)cc1 [GW2580] (first compound 1.4 µM, partner dose 1 µM) | 130% |
| Cc1ccc(NC(=O)c2cccc(N(C)C)c2)cc1NC(=O)c1ccc(O)cc1 + NCC(=O)Nc1ccc(-n2nc(C(F)(F)F)cc2-c2ccc3c(ccc4ccccc43)c2)cc1 [OSU03012] (first compound 2 µM, partner dose 1 µM) | 47.6% |

What follows are compounds tested on WM3619 in the same assay as above. Conditions: library dose: low library concentration; 72 h.

| SMILES | cleaved PARP positive nuclei fraction |
| --- | --- |
| C=CCNC1=C2C[C@@H](C)C[C@H](OC)[C@H](O)[C@@H](C)/C=C(\C)[C@H](OC(N)=O)[C@@H](OC)/C=C\C=C(/C)C(=O)NC(=CC1=O)C2=O [Tanespimycin] + Cn1c(Nc2ccc(C(F)(F)F)cc2)nc2cc(Oc3ccnc(-c4ncc(C(F)(F)F)[nH]4)c3)ccc21 [CHIR265] (first compound 0.002 µM, partner dose 0.08 µM) | 136% |
| Clc1ccc(Nc2nnc(Cc3ccncc3)c3ccccc23)cc1 [vatalanib] + CC(C)(C)c1cnc(CSc2cnc(NC(=O)C3CCNCC3)s2)o1 [SNS-032] (first compound 2 µM, partner dose 0.01 µM) | 122% |
| C[C@]1(c2nc3c(C(N)=O)cccc3[nH]2)CCCN1 [Veliparib] + CC(C)(C)c1cnc(CSc2cnc(NC(=O)C3CCNCC3)s2)o1 [SNS-032] (first compound 1.4 µM, partner dose 0.01 µM) | 119% |
| C#Cc1cccc(Nc2ncnc3cc(OCCOC)c(OCCOC)cc23)c1 [erlotinib] + CN(C)S(=O)(=O)c1ccc2c(c1)/C(=C/c1cc3c([nH]1)CCCC3)C(=O)N2 [SU6656] (first compound 0.8 µM, partner dose 0.4 µM) | 109% |
| Cc1ccc(NC(=O)c2cccc(N(C)C)c2)cc1NC(=O)c1ccc(O)cc1 + Oc1cc(-c2nc(-c3ccccc3)[nH]c2-c2ccncc2)ccc1Cl [L779450] (first compound 2 µM, partner dose 0.2 µM) | 88.9% |
| O=C(CCCCCCC(=O)Nc1ccccc1)NO [vorinostat] + CCc1ccc(CCOc2ccc(CC3SC(=O)NC3=O)cc2)nc1 [pioglitazone] (first compound 0.08 µM, partner dose 2 µM) | 94.8% |
| C#Cc1cccc(Nc2ncnc3cc(OCCOC)c(OCCOC)cc23)c1 [erlotinib] + O=C(Nc1ccccc1)c1cc([N+](=O)[O-])ccc1Cl [GW9662] (first compound 0.8 µM, partner dose 2 µM) | 82.2% |
| Cc1cc(N2CCOCC2)cc2[nH]c(-c3c(NC[C@@H](O)c4cccc(Cl)c4)cc[nH]c3=O)nc12 + O=C1NC(=O)/C(=C/c2ccc(-c3ccc(F)cc3O)o2)S1 [AS252424] (first compound 0.2 µM, partner dose 1 µM) | 85.2% |
| C#Cc1cccc(Nc2ncnc3cc(OCCOC)c(OCCOC)cc23)c1 [erlotinib] + CC1(C)NC(=O)N(c2ccc([N+](=O)[O-])c(C(F)(F)F)c2)C1=O [nilutamide] (first compound 0.8 µM, partner dose 1 µM) | 97.2% |
| CO[C@@H]1[C@H](N(C)C(=O)c2ccccc2)C[C@H]2O[C@]1(C)n1c3ccccc3c3c4c(c5c6ccccc6n2c5c31)C(=O)NC4 [Midostaurin] + CCCCCCCCCCCC1=C(O)C(=O)C=C(O)C1=O [Embelin] (first compound 0.08 µM, partner dose 1.2 µM) | 68.8% |
| NC(=O)Nc1cc(-c2cccc(F)c2)sc1C(=O)N[C@H]1CCCNC1 + CN(C)S(=O)(=O)c1ccc2c(c1)/C(=C/c1cc3c([nH]1)CCCC3)C(=O)N2 [SU6656] (first compound 0.02 µM, partner dose 0.4 µM) | 85.9% |
| Clc1ccc(Nc2nnc(Cc3ccncc3)c3ccccc23)cc1 [vatalanib] + Cc1cc(N2CCOCC2)cc2[nH]c(-c3c(NC[C@@H](O)c4cccc(Cl)c4)cc[nH]c3=O)nc12 [BMS536924] (first compound 2 µM, partner dose 0.2 µM) | 103% |
| Cc1cc(N2CCOCC2)cc2[nH]c(-c3c(NC[C@@H](O)c4cccc(Cl)c4)cc[nH]c3=O)nc12 + OCCn1cc(-c2cnc3nnn(Cc4ccc5ncccc5c4)c3n2)cn1 [PF04217903] (first compound 0.2 µM, partner dose 1 µM) | 104% |
| COc1cc(Nc2ncc(F)c(Nc3ccc4c(n3)NC(=O)C(C)(C)O4)n2)cc(OC)c1OC [Tamatinib] + Oc1nc(-c2ccc(C(F)(F)F)cc2)nc2c1CSCC2 [XAV939] (first compound 0.4 µM, partner dose 2 µM) | 102% |
| Clc1ccc(Nc2nnc(Cc3ccncc3)c3ccccc23)cc1 [vatalanib] + O=C(Nc1cccc(Cl)c1)Nc1ncc(CCNc2ncnc3ccsc23)s1 [SNS314] (first compound 2 µM, partner dose 0.0008 µM) | 123% |
| NC(=O)Nc1cc(-c2cccc(F)c2)sc1C(=O)N[C@H]1CCCNC1 + COc1ccc(-c2ccc3c(N4CCOCC4)nc(N4C[C@@H](C)O[C@@H](C)C4)nc3n2)cc1CO [KU0063794] (first compound 0.02 µM, partner dose 0.02 µM) | 191% |
| C[C@@H]1CCN(C(=O)CC#N)C[C@@H]1N(C)c1ncnc2[nH]ccc12 + COc1ccc(-c2ccc3c(N4CCOCC4)nc(N4C[C@@H](C)O[C@@H](C)C4)nc3n2)cc1CO [KU0063794] (first compound 1 µM, partner dose 0.02 µM) | 72% |
| Clc1ccc(Nc2nnc(Cc3ccncc3)c3ccccc23)cc1 [vatalanib] + O=C1NC(=O)/C(=C/c2ccc(-c3ccc(F)cc3O)o2)S1 [AS252424] (first compound 2 µM, partner dose 1 µM) | 103% |
| C[C@]1(c2nc3c(C(N)=O)cccc3[nH]2)CCCN1 [Veliparib] + COc1cc2ncnc(Nc3ccc(Oc4ccccc4)cc3)c2cc1OC [SrcI1] (first compound 1.4 µM, partner dose 2 µM) | 73.5% |
| Cn1nnc2c(C(N)=O)ncn2c1=O [temozolomide] + Cc1ccc(NC(=O)c2cccc(N(C)C)c2)cc1NC(=O)c1ccc(O)cc1 [ZM336372] (first compound 2 µM, partner dose 2 µM) | 98.7% |
| CC1(C)NC(=O)N(c2ccc([N+](=O)[O-])c(C(F)(F)F)c2)C1=O [nilutamide] + O=C(O)c1ccc(-c2c[nH]c3ncc(-c4ccccc4)cc23)cc1C1CCCC1 [GSK650394] (first compound 1 µM, partner dose 0.16 µM) | 107% |
| NC(=O)Nc1cc(-c2cccc(F)c2)sc1C(=O)N[C@H]1CCCNC1 + OCCn1cc(-c2cnc3nnn(Cc4ccc5ncccc5c4)c3n2)cn1 [PF04217903] (first compound 0.02 µM, partner dose 1 µM) | 258% |
| C[C@@H]1CCN(C(=O)CC#N)C[C@@H]1N(C)c1ncnc2[nH]ccc12 + COC(=O)c1sccc1S(=O)(=O)Nc1ccc(Nc2ccccc2)cc1OC [GSK0660] (first compound 1 µM, partner dose 1 µM) | 78.9% |
| CC(=O)c1c(C)c2cnc(Nc3ccc(N4CCNCC4)cn3)nc2n(C2CCCC2)c1=O [palbociclib] + CO[C@@H]1[C@H](N(C)C(=O)c2ccccc2)C[C@H]2O[C@]1(C)n1c3ccccc3c3c4c(c5c6ccccc6n2c5c31)C(=O)NC4 [Midostaurin] (first compound 0.04 µM, partner dose 0.08 µM) | 137% |

Another view of some results above.
NC(=O)Nc1cc(-c2cccc(F)c2)sc1C(=O)N[C@H]1CCCNC1 + OCCn1cc(-c2cnc3nnn(Cc4ccc5ncccc5c4)c3n2)cn1 [PF04217903] (first compound 0.02 µM, partner dose 1 µM)
  cleaved PARP positive nuclei fraction: 258%
C[C@@H]1CCN(C(=O)CC#N)C[C@@H]1N(C)c1ncnc2[nH]ccc12 + COC(=O)c1sccc1S(=O)(=O)Nc1ccc(Nc2ccccc2)cc1OC [GSK0660] (first compound 1 µM, partner dose 1 µM)
  cleaved PARP positive nuclei fraction: 78.9%
